Assay results published in patent US20200041497.

What was measured:
[1] = system: thrombin in human serum (Homo sapiens); test: binding assay; conditions: nanopore translocation in 1:20 human serum, 100 mM KCl, protein in an extract, single-stranded DNA, variant of TBA 15-mer
[2] = system: alpha-thrombin (Homo sapiens); test: binding assay; conditions: purified native protein, protein details: Cambridge Biosciences, UK, single-stranded DNA

GGTTGGTGTGGTTGGGGGCGGCGACCTAAGGTGTCGTGCGTAAGTTTTTAA [TBA detection probe ii (51-mer)]
binding result [1]: binds

GGTTGGTGTGGTTGGAGGTCGCCGCCC
binding result ([2]; nanopore translocation of lambda-DNA carrier complex, sub-peaks, 100 mM KCl, 10 mM Tris, 1 mM EDTA pH 8, variant of TBA 15-mer): binds | binding result ([1]; sub-peak at 0.2, 0.7 or 0.9): binds

GGTTGGTGTGGTTGGTTTTTTTTTGTCTTTTTTTTTTTTCTGTTTTTAAAAACTTACGCACGACACCTT [TBA detection probe iii (69-mer)]
binding result [1]: binds

GGTTGGTGTGGTTGG [TBA 15-mer]
binding result ([2]; CITED, solid phase assays): binds

For some assays here: At least one result comes from cells or an extract, where the contact may be indirect. The exact form of at least one protein or probe is not confirmed.
